The list shows a part of the results. Repeats are few or missing, and single values can be far off.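 The apoptosis fraction was the count of cleaved-PARP antibody-stained nuclei relative to all DNA-stained nuclei, imaged in 1,536-well plates. Screening doses were set so most cells survived, and baseline and induced cleaved-PARP levels vary greatly across cell lines.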
Experiments:
Assay in all cases: cleaved PARP positive nuclei fraction relative to DMSO control; melanoma cells; higher = more apoptosis
Conditions in all cases: library dose: low library concentration; 72 h
[1] = tested on: 501Mel
[2] = tested on: A101D
[3] = tested on: A2058
[4] = tested on: C32
[5] = tested on: CBRC008 (line from a melanoma biopsy)
[6] = tested on: CBRC014 (line from a melanoma biopsy)
[7] = tested on: CBRC016 (line from a melanoma biopsy)
[8] = tested on: CBRC017 (line from a melanoma biopsy)
[9] = tested on: COLO792
[10] = tested on: COLO800
[11] = tested on: COLO829
[12] = tested on: G361
[13] = tested on: IPC-298
[14] = tested on: IST-MEL1
[15] = tested on: LB2518-MEL
[16] = tested on: LOXIMVI

Structure (SMILES)	cleaved PARP positive nuclei fraction [1] [%]	cleaved PARP positive nuclei fraction [2] [%]	cleaved PARP positive nuclei fraction [3] [%]	cleaved PARP positive nuclei fraction [4] [%]	cleaved PARP positive nuclei fraction [5] [%]	cleaved PARP positive nuclei fraction [6] [%]	cleaved PARP positive nuclei fraction [7] [%]	cleaved PARP positive nuclei fraction [8] [%]	cleaved PARP positive nuclei fraction [9] [%]	cleaved PARP positive nuclei fraction [10] [%]	cleaved PARP positive nuclei fraction [11] [%]	cleaved PARP positive nuclei fraction [12] [%]	cleaved PARP positive nuclei fraction [13] [%]	cleaved PARP positive nuclei fraction [14] [%]	cleaved PARP positive nuclei fraction [15] [%]	cleaved PARP positive nuclei fraction [16] [%]
CC(=O)O[C@@]12CO[C@@H]1C[C@H](O)[C@@]1(C)C(=O)[C@H](O)C3=C(C)[C@@H](OC(=O)[C@H](O)[C@@H](NC(=O)OC(C)(C)C)c4ccccc4)C[C@@](O)([C@@H](OC(=O)c4ccccc4)[C@H]21)C3(C)C [Docetaxel] + O=C1NC(=O)/C(=C/c2ccc(-c3ccc(F)cc3O)o2)S1 [AS252424] (first compound 0.0001 µM, partner dose 1 µM)	208	35	2250	700	520	129	225	174	597	124	335	1260	358	96.6	136	101
CCCCCCCCc1ccc(CCC(N)(CO)CO)cc1 [fingolimod] + COc1ccc(-c2ccc3c(N4CCOCC4)nc(N4C[C@@H](C)O[C@@H](C)C4)nc3n2)cc1CO [KU0063794] (first compound 2 µM, partner dose 0.02 µM)	154	15.1	147	204	40	422	45.9	428	52.8	179	126	120	50	120	79.7	112
Cn1cnc2c(F)c(Nc3ccc(Br)cc3Cl)c(C(=O)NOCCO)cc21 [selumetinib] + CCc1ccc(CCOc2ccc(CC3SC(=O)NC3=O)cc2)nc1 [pioglitazone] (first compound 0.015 µM, partner dose 2 µM)	126	57.2	118	141	165	77.9	95.9	109	135	89.8	134	137	213	111	357	136
C[C@@H](N)c1ccc(C(=O)Nc2ccnc3[nH]ccc23)cc1 + Oc1cc(-c2nc(-c3ccccc3)[nH]c2-c2ccncc2)ccc1Cl [L779450] (first compound 0.4 µM, partner dose 0.2 µM)	82.4	17.2	68.5	62.3	93.6	103	54.8	214	179	89.2	93.4	244	50.5	198	65.3	255
Cn1cnc2c(F)c(Nc3ccc(Br)cc3Cl)c(C(=O)NOCCO)cc21 [selumetinib] + O=c1cc(-c2cccc3c2Sc2ccccc2S3)oc(N2CCOCC2)c1 [KU55933] (first compound 0.015 µM, partner dose 1 µM)	297	14.7	69.2	31.3	86.3	156	76	141	208	96.2	149	46.2	200	99.8	46.3	158
C[C@@H](N)c1ccc(C(=O)Nc2ccnc3[nH]ccc23)cc1 + COC(=O)c1sccc1S(=O)(=O)Nc1ccc(Nc2ccccc2)cc1OC [GSK0660] (first compound 0.4 µM, partner dose 1 µM)	109	16.7	64.3	86.5	122	126	67	87	217	72.2	81	121	962	88.5	118	388
CCN(CC)CCNC(=O)c1c(C)[nH]c(/C=C2\C(=O)Nc3ccc(F)cc32)c1C [sunitinib] + Oc1nc(-c2ccc(C(F)(F)F)cc2)nc2c1CSCC2 [XAV939] (first compound 0.4 µM, partner dose 2 µM)	85.4	79.8	95.3	157	56.9	102	120	114	85.2	152	67.4	124	100	113	37.4	166
NC(=O)c1ccc(N(C(N)=O)c2c(F)cccc2F)nc1-c1ccc(F)cc1F + O=S(=O)(c1ccccc1)N(CC(F)(F)F)c1ccc(C(O)(C(F)(F)F)C(F)(F)F)cc1 [T0901317] (first compound 0.4 µM, partner dose 1.4 µM)	77.1	26.7	98.3	79.7	94.5	116	55.9	110	166	78	57.6	94.5	101	89.8	88.2	115
CC1(C)CCC(c2ccc(Cl)cc2)=C(CN2CCN(c3ccc(C(=O)NS(=O)(=O)c4ccc(N[C@H](CCN5CCOCC5)CSc5ccccc5)c(S(=O)(=O)C(F)(F)F)c4)cc3)CC2)C1 + COc1cc2ncnc(Nc3ccc(Oc4ccccc4)cc3)c2cc1OC [SrcI1] (first compound 0.4 µM, partner dose 2 µM)	67.2	167	181	240	370	299	264	259	249	178	80.5	114	260	78	176	195
CS(=O)(=O)c1ccc(C(=O)Nc2ccc(Cl)c(-c3ccccn3)c2)c(Cl)c1 [vismodegib] + COc1ccc2c(c1)CCC1C2CCC2(C)C(NCCCCCCN3C(=O)C=CC3=O)CCC12 [U73122] (first compound 1 µM, partner dose 0.4 µM)	99.2	14.1	84.6	84.6	58.8	112	48.6	48.1	144	185	79.2	64.7	188	123	67.7	144
NC(=O)c1ccc(N(C(N)=O)c2c(F)cccc2F)nc1-c1ccc(F)cc1F + Cc1cc([N+](=O)[O-])ccc1NS(=O)(=O)c1cc(Cl)ccc1Cl [FH535] (first compound 0.4 µM, partner dose 1 µM)	76.9	14.6	85.9	93.9	2070	207	1420	927	82.5	29.2	111	124	47.7	209	42.4	124
CC1(C)CCC(c2ccc(Cl)cc2)=C(CN2CCN(c3ccc(C(=O)NS(=O)(=O)c4ccc(N[C@H](CCN5CCOCC5)CSc5ccccc5)c(S(=O)(=O)C(F)(F)F)c4)cc3)CC2)C1 + Cc1cc([N+](=O)[O-])ccc1NS(=O)(=O)c1cc(Cl)ccc1Cl [FH535] (first compound 0.4 µM, partner dose 1 µM)	226	70.4	60.4	1390	1590	3810	627	476	624	67	84.4	362	172	502	268	66.1

Looked up one by one from the list above (2):
Structure (SMILES)	cleaved PARP positive nuclei fraction [1] [%]	cleaved PARP positive nuclei fraction [2] [%]	cleaved PARP positive nuclei fraction [3] [%]	cleaved PARP positive nuclei fraction [4] [%]	cleaved PARP positive nuclei fraction [5] [%]	cleaved PARP positive nuclei fraction [6] [%]	cleaved PARP positive nuclei fraction [7] [%]	cleaved PARP positive nuclei fraction [8] [%]	cleaved PARP positive nuclei fraction [9] [%]	cleaved PARP positive nuclei fraction [10] [%]	cleaved PARP positive nuclei fraction [11] [%]	cleaved PARP positive nuclei fraction [12] [%]	cleaved PARP positive nuclei fraction [13] [%]	cleaved PARP positive nuclei fraction [14] [%]	cleaved PARP positive nuclei fraction [15] [%]	cleaved PARP positive nuclei fraction [16] [%]
C[C@@H](N)c1ccc(C(=O)Nc2ccnc3[nH]ccc23)cc1 + COC(=O)c1sccc1S(=O)(=O)Nc1ccc(Nc2ccccc2)cc1OC [GSK0660] (first compound 0.4 µM, partner dose 1 µM)	109	16.7	64.3	86.5	122	126	67	87	217	72.2	81	121	962	88.5	118	388
CC1(C)CCC(c2ccc(Cl)cc2)=C(CN2CCN(c3ccc(C(=O)NS(=O)(=O)c4ccc(N[C@H](CCN5CCOCC5)CSc5ccccc5)c(S(=O)(=O)C(F)(F)F)c4)cc3)CC2)C1 + COc1cc2ncnc(Nc3ccc(Oc4ccccc4)cc3)c2cc1OC [SrcI1] (first compound 0.4 µM, partner dose 2 µM)	67.2	167	181	240	370	299	264	259	249	178	80.5	114	260	78	176	195

From the supplement of paper PMC4604168 (melanoma cell lines)
